Among the data in patent US6686370B2, “Triazospiro compounds having nociceptin receptor affinity” (Euro-Celtique S.A., priority 1999, dated 2004) are Ki values, retold here.

By UniProt entry, the sequences of proteins in these tests, tags left out. Where a name states a change or a piece, a line headed by the entry shows the natural chain unless it says otherwise.
UniProt P41146: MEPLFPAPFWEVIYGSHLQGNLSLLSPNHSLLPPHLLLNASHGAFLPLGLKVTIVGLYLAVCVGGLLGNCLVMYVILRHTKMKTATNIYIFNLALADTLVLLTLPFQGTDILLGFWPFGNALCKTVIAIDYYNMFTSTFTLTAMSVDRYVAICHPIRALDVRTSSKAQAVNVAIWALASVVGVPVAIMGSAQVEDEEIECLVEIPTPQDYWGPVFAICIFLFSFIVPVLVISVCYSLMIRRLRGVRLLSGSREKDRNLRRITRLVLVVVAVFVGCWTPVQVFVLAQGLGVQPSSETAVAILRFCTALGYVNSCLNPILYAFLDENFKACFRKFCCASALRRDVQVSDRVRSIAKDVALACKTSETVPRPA

In this assay the target is human opioid receptor-like receptor (ORL-1) (Homo sapiens, UniProt P41146). The assay can be described thus: biochemical.

As to `O=C1NCN(c2ccccc2)C12CCN(CCCC(c1ccc(F)cc1)c1ccc(F)cc1)CC2` [8-[4,4-Bis(p-fluorophenyl)butyl]-1-phenyl-1,3,8-triazospiro[4.5]decan-4-one], affinity was put at a Ki of 168 nM. In other words, the sub-micromolar range.
